Experimental findings from PMC9041927, “Aptamer based surface plasma resonance assay for direct detection of neuron specific enolase and progastrin-releasing peptide (31-98)†” are described below.

Chains of the proteins cited; added tags and fusions are not shown. Chains listed by the source or under a name are the forms on record and can include a tag or linker. Residues count along the entry.
UniProt P09104, 2-434: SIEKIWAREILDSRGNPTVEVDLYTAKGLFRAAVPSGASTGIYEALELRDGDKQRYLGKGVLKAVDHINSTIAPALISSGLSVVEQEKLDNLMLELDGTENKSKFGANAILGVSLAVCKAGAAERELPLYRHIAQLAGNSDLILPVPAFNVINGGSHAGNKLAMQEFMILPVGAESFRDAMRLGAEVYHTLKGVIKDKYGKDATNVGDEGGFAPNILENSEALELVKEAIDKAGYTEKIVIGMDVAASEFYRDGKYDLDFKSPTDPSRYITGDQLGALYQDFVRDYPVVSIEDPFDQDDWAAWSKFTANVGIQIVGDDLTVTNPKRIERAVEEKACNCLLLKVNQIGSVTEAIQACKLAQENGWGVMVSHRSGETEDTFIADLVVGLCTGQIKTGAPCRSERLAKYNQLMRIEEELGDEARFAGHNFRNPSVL
UniProt P02771, 19-609: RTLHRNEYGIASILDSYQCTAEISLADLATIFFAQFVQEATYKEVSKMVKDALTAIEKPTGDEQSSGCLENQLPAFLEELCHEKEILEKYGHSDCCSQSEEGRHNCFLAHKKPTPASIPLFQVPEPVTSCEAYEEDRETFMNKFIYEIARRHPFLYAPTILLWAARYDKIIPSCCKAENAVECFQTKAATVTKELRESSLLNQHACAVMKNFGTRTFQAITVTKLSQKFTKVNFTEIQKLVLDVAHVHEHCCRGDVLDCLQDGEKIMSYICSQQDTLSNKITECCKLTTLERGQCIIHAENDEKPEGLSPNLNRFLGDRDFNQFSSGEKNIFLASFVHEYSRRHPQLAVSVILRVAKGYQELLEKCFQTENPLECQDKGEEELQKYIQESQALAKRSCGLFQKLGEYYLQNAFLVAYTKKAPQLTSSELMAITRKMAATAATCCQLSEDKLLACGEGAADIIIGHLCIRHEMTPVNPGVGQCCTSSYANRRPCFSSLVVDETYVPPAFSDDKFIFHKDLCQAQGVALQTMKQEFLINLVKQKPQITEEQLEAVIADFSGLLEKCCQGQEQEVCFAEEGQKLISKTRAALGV
mucin-1 (MUC1) (human), one chain, as listed by the source: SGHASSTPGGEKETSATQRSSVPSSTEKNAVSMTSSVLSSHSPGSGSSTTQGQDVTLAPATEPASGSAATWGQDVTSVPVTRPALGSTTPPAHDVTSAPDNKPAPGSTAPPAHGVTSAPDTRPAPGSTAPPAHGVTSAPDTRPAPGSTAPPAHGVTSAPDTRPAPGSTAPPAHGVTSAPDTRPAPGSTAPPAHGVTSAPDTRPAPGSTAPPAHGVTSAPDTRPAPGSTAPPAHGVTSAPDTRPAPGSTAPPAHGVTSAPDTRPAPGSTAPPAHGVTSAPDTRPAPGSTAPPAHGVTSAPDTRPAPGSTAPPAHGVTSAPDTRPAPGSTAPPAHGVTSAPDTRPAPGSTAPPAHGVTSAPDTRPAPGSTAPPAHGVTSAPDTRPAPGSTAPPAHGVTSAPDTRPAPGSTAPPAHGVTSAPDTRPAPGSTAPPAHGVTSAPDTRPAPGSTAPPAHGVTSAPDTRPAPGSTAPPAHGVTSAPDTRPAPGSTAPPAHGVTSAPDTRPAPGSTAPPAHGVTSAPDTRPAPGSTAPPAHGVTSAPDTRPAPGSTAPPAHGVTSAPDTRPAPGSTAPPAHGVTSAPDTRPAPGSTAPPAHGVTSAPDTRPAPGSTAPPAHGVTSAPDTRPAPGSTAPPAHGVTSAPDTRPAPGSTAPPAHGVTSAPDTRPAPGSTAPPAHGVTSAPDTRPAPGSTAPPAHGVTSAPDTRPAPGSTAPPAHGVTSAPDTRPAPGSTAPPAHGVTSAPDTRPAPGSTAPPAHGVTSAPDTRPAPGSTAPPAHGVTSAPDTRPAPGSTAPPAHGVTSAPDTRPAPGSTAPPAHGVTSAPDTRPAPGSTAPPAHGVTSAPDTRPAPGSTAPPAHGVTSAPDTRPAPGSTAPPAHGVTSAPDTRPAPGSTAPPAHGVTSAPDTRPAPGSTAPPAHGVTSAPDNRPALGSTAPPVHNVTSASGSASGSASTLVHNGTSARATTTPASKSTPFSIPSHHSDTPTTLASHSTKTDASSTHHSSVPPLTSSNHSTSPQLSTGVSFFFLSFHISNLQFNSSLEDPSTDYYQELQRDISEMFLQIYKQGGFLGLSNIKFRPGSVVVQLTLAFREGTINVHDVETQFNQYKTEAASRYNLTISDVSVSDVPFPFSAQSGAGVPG

A weaker result is weaker than the reference pair of the same experiment. For some assays here: Protein sequences can lack the tags named with them. For some assays here: The exact form of at least one protein or probe is not confirmed. For some assays here: At least one verdict rests on a figure or table, not on a statement of the authors.

Holding throughout (experiment): SPR
For data set [1], the target named is T1, carcinoembryonic antigen (CEA) (human) (UniProt P06731).
T1 sequence (looked up, limits assumed): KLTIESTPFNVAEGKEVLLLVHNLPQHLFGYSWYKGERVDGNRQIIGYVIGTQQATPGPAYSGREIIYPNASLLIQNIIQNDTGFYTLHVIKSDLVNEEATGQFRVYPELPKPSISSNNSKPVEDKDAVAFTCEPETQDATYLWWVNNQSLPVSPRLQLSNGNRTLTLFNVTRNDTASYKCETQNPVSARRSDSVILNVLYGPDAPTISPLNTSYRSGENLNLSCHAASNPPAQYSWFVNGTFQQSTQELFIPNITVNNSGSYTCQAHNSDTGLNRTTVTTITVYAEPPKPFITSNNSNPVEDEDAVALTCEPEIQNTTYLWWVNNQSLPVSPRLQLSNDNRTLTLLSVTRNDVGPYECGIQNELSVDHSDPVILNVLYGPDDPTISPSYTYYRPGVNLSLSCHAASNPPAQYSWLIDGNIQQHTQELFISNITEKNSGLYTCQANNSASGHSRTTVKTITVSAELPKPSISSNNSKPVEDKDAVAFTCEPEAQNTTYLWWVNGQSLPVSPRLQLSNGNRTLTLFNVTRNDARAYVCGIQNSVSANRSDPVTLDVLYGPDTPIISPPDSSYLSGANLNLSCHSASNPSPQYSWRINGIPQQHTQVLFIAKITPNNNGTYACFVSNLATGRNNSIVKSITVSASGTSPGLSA
As to conditions: SPR (Biacore X100, SA chip), 1x PBS pH 7.5, 0.1% Tween 20, 5 mM MgCl2 (NSE) or 2 mM MgCl2 (ProGRP31-98), temperature not stated, recombinant protein, label: 5' biotin-TEG, single-stranded DNA. Background: Surface plasmon resonance follows binding to a sensor surface in real time, without labels.

Data set [2] addresses T2, progastrin-releasing peptide (31-98) (ProGRP31-98) (UniProt P07492).
T2 sequence (looked up): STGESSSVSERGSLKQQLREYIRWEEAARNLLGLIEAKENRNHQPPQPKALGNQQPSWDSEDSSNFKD
As to conditions: little increase of signal; SPR (Biacore X100, SA chip); 1x PBS pH 7.5, 0.1% Tween 20, 5 mM MgCl2 (NSE) or 2 mM MgCl2 (ProGRP31-98); temperature not stated; commercial protein; residues 54-121; label: 5' biotin-TEG; single-stranded DNA.

Data set [3] addresses carbohydrate antigen 125 (CA125) (human) (UniProt Q8WXI7). As to conditions: SPR (Biacore X100, SA chip), 1x PBS pH 7.5, 0.1% Tween 20, 5 mM MgCl2 (NSE) or 2 mM MgCl2 (ProGRP31-98), temperature not stated, recombinant protein, label: 5' biotin-TEG, single-stranded DNA.
Data set [4] concerns the target neuron specific enolase (NSE) (UniProt P09104). The conditions noted are these: SPR (Biacore X100, SA chip), 1x PBS pH 7.5, 0.1% Tween 20, 5 mM MgCl2 (NSE) or 2 mM MgCl2 (ProGRP31-98), temperature not stated, recombinant protein, label: 5' biotin-TEG, single-stranded DNA.
For a further data set, the system named is mucin-1 (MUC1) (human). The conditions noted are these: SPR (Biacore X100, SA chip), 1x PBS pH 7.5, 0.1% Tween 20, 5 mM MgCl2 (NSE) or 2 mM MgCl2 (ProGRP31-98), temperature not stated, recombinant protein, label: 5' biotin-TEG, single-stranded DNA.
Data set [5] addresses alpha-fetoprotein (AFP) antigen (UniProt P02771). The conditions noted are these: SPR (Biacore X100, SA chip), 1x PBS pH 7.5, 0.1% Tween 20, 5 mM MgCl2 (NSE) or 2 mM MgCl2 (ProGRP31-98), temperature not stated, commercial protein, label: 5' biotin-TEG, single-stranded DNA.

Turning to “TCACACACGGACCTCTCCTACATTAATTGCGCATTTCGTT [NSE-Apt5-5BioTEG]”, the binding result (in data set [1] (little increase of signal); in data set [2]; in data set [3] (little increase of signal); with mucin-1 (MUC1) (human) (little increase of signal); in data set [5] (little increase of signal)) was “binds more weakly” throughout. Also, the Kd in data set [4] (NSE-immobilized CM5 chip) is 0.012 µM.

Consider “CATGCGGAGTAGATTCGAGCCCAGATAGTCCCTGGTTATTTCCTTAGG [ProGRP-48-5BioTEG]”, for which the binding result (in data set [1] (weak response); in data set [3] (weak response); in data set [4] (weak response); in the data set on mucin-1 (MUC1) (human) (weak response); in data set [5] (weak response)) was “binds more weakly” each time.

One may read the Kd as the equilibrium constant for the complex coming apart.
